At least one peptide structure holds a part that was inferred or is arguable (an end, a ring closure or a residue). Some entries repeat one wording, which the source may state once for all of them. Some entries share one result that the patent states for a list of compounds. Bridge positions count the residues as written; N and C are the ends. Square brackets hold non-standard residues; d marks the D form. Peptide text beside a SMILES is read from it. Dap = NC[C@H](N)C(=O)O
Tests used:
[1] = biological target: ComD1 receptor (Streptococcus pneumoniae serotype 2, UniProt A0A0H2ZM50); assay type: cell-based; details: FIGS. 9A-9E
Description: (§1) Biological evaluation of cyclic dnCSPs. The cyclic dnCSPs will be assessed for inhibition of competence induction using the β-gal, lux (FIG. 11) or luc (FIG. 15) reporter systems we have optimized for the analysis of a large number of signal variants in 96-well plates. All assays will be performed in triplicates and independently three times. Serial dilutions of dnCSPs will be conducted to determine the EC50 and IC50 values of promising dnCSPs through initial screening. Data from reporter assays will be analyzed using the GraphPad Prism software. The lead dnCSPs will be assessed for their therapeutic potential using multiple in vitro assays, including attenuation of ComX-induction (reporter systems), genetic transformation, allolysis (zymogram assays), and release of PLY (hemolysis & Western blots). Lastly, the pneumococcal competence system regulates biofilm formation, which is important for the pathogenesis of […]. The ability of the dnCSPs to inhibit biofilm formation will be evaluated after 24 hr of growth on 1% BSA coated coverslips placed in flat-bottom polystyrene tissue culture plates by staining with FilmTracer LIVE/DEAD Biofilm viability kit (Invitrogen, L10316), and visualized using a confocal microscope and Z-stacked to construct 3D-images.

By UniProt entry, the sequences of proteins in these tests, tags left out.
UniProt A0A0H2ZM50, entry or part of it: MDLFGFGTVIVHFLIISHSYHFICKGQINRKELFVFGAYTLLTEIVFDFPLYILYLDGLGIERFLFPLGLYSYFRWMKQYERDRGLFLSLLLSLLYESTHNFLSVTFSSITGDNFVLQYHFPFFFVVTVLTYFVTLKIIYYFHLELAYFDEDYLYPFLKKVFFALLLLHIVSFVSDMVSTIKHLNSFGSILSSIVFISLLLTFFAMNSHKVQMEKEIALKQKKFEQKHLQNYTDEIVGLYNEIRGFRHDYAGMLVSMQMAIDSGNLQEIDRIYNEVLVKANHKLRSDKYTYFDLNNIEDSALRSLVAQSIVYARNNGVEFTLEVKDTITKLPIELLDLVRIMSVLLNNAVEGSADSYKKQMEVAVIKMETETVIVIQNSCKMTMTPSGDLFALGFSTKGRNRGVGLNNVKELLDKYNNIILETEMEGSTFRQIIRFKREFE
UniProt A0A0H2US84, entry or part of it: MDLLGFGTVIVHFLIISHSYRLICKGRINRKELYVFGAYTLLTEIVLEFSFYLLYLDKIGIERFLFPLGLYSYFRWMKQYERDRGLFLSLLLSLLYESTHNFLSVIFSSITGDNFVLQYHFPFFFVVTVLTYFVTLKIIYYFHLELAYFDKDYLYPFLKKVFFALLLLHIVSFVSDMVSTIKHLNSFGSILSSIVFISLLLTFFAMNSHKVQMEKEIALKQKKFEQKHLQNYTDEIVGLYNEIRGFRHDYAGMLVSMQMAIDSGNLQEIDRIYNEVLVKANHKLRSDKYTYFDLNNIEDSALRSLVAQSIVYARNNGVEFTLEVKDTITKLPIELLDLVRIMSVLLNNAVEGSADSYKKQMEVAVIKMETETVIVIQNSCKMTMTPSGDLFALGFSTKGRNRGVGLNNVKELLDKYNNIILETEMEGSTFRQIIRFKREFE

[2] = test system: wild-type pneumococcal strains D39 and TIGR4; experiment: Mouse mortality in model of acute pneumonia; assay type: in vivo; details: FIG. 10C
[3] = test system: D39-ssbB-lux; experiment: ssbB-luxABCDE luminescence reporter of ComX transcriptional activity; assay type: cell-based, Streptococcus pneumoniae
[4] = test system: D39 cells; experiment: Zymogram analysis of ComX-regulated LytA and CbpD; assay type: cell-based, Streptococcus pneumoniae; details: simultaneous treatment with CSP1, 30 minutes
[5] = test system: pneumococcus; experiment: Gene acquisition in mouse models of bacteremia and pneumonia infections; assay type: in vivo
[6] = biological target: ComD2 receptor (Streptococcus pneumoniae serotype 4, UniProt A0A0H2US84); assay type: cell-based; details: for CSP2-mediated ComX induction: FIGS. 9D-9E
Description: as §1, with “The cyclic dnCSPs will be assessed for inhibition of competence induction using the β-gal, lux (FIG. 11) or luc (FIG. 15) reporter systems we have optimized for the analysis of a large number of signal variants in 96-well plates.” left out

[7] = test system: group 1 strain D39; experiment: Inhibition of pneumolysin-mediated hemolysis of sheep blood induced by CSP1; assay type: cell-based, Streptococcus pneumoniae
[8] = test system: group 2 strain TIGR4; experiment: Inhibition of pneumolysin-mediated hemolysis of sheep blood induced by CSP2; assay type: cell-based, Streptococcus pneumoniae; details: TIGR4 exposed to 50 nM CSP2, increasing inhibitor concentrations
[9] = test system: TIGR4-ssbB-lux; experiment: ssbB-luxABCDE luminescence reporter of ComX transcriptional activity; assay type: cell-based, Streptococcus pneumoniae
[10] = test system: D39; experiment: PLY release after competence induction; assay type: cell-based, Streptococcus pneumoniae

## CC[C@H](C)[C@H](NC(=O)[C@H](Cc1ccccc1)NC(=O)[C@H](CC(=O)O)NC(=O)[C@H](CCCNC(=N)N)NC(=O)[C@H](Cc1ccccc1)NC(=O)[C@H](Cc1ccccc1)NC(=O)[C@H](CCCCN)NC(=O)[C@H](CO)NC(=O)[C@H](CC(C)C)NC(=O)[C@H](CCCNC(=N)N)NC(=O)[C@H](CCSC)NC(=O)[C@H](C)N)C(=O)N[C@@H](CC(C)C)C(=O)N[C@@H](CCC(N)=O)C(=O)N[C@@H](CCCNC(=N)N)C(=O)N[C@@H](CCCCN)C(=O)N[C@@H](CCCCN)C(=O)O [CSP1-E1A, A-M-R-L-S-K-F-F-R-D-F-I-L-Q-R-K-K]
[1]
  CSP1-mediated ComX induction: competitively inhibiting
[2]
  mouse mortality: significantly reduced mouse mortality
[3]; 50 min, C+Y medium
  induction of ssbB by CSP, moxifloxacin and clavulanate: inhibit
[4]
  expression of ComX-regulated LytA and CbpD by CSP1: inhibits
[5]
  acquisition of an antibiotic resistance gene and a capsule gene: attenuates

## CC[C@H](C)[C@H](NC(=O)[C@H](Cc1ccccc1)NC(=O)[C@@H]1CCC(=O)NC[C@H](NC(=O)[C@H](CO)NC(=O)[C@H](CC(C)C)NC(=O)[C@H](CCCNC(=N)N)NC(=O)[C@H](CCSC)NC(=O)[C@H](C)N)C(=O)N[C@@H](Cc2ccccc2)C(=O)N[C@@H](Cc2ccccc2)C(=O)N[C@@H](CCCNC(=N)N)C(=O)N1)C(=O)N[C@@H](CC(C)C)C(=O)N[C@@H](CCC(N)=O)C(=O)N[C@@H](CCCNC(=N)N)C(=O)N[C@@H](CCCCN)C(=O)N[C@@H](CCCCN)C(=O)O [CSP1-E1A-cyc(Dap6E10), A-M-R-L-S-(Dap-F-F-R-E)-F-I-L-Q-R-K-K] (H-AMRLS[Dap]FFREFILQRKK-OH; lactam 6-10; N-terminus and C-terminus assumed)
[1]
  CSP1-mediated ComX induction: efficiently inhibits
[6]
  inhibition potency against the ComD2 receptor less than CSP2-E1Ad10: 3 fold
  CSP2-mediated ComX induction: efficiently inhibits
[7]
  more effective in inhibiting hemolysis mediated by D39 than TIGR4: 3-4 fold
[7]; D39 exposed to 50 nM CSP1, increasing inhibitor concentrations
  hemolysis of sheep blood / pneumolysin release: effectively reduced the hemolysis
[8]
  hemolysis of sheep blood / pneumolysin release: effectively reduced the hemolysis
[2]
  mouse mortality: significantly reduced mouse mortality
[3]; FIG. 11E
  induction of ssbB by moxifloxacin: inhibits
[9]; FIG. 11E
  induction of ssbB by moxifloxacin: inhibits

## CC[C@H](C)[C@H](NC(=O)[C@H](Cc1ccccc1)NC(=O)[C@@H]1CC(=O)NCCCC[C@H](NC(=O)[C@H](CO)NC(=O)[C@H](CC(C)C)NC(=O)[C@H](CCCNC(=N)N)NC(=O)[C@H](CCSC)NC(=O)[C@@H](N)CCC(=O)O)C(=O)N[C@@H](Cc2ccccc2)C(=O)N[C@@H](Cc2ccccc2)C(=O)N[C@@H](CCCNC(=N)N)C(=O)N1)C(=O)N[C@@H](CC(C)C)C(=O)N[C@@H](CCC(N)=O)C(=O)N[C@@H](CCCNC(=N)N)C(=O)N[C@@H](CCCCN)C(=O)N[C@@H](CCCCN)C(=O)O [CSP1-cyc(K6D10)]
[6]; ComD2
  less potent than CSP1-cyc(Dab6E10) and CSP1-cyc(Dap6E10): over 30 fold

## CC[C@H](C)[C@H](NC(=O)[C@H](Cc1ccccc1)NC(=O)[C@H](CC(=O)O)NC(=O)[C@H](CCCNC(=N)N)NC(=O)[C@H](Cc1ccccc1)NC(=O)[C@H](Cc1ccccc1)NC(=O)[C@H](CCCCN)NC(=O)[C@H](CO)NC(=O)[C@H](CC(C)C)NC(=O)[C@H](CCCNC(=N)N)NC(=O)[C@H](CCSC)NC(=O)[C@@H](N)CCC(=O)O)C(=O)N[C@@H](CC(C)C)C(=O)N[C@@H](CCC(N)=O)C(=O)N[C@@H](CCCNC(=N)N)C(=O)N[C@@H](CCCCN)C(=O)N[C@@H](CCCCN)C(=O)O [CSP1]
[10]; D39, competence induction
  increase of PLY release: 3 fold
[10]; ΔcibAB and ΔdprA mutants
  increase of PLY release: 2.3 fold

## CC[C@H](C)[C@H](NC(=O)[C@H](CCCNC(=N)N)NC(=O)[C@H](CCSC)NC(=O)[C@H](C)N)C(=O)N[C@@H](CO)C(=O)N[C@@H](CCCNC(=N)N)C(=O)N[C@H](C(=O)N[C@H](C(=O)N[C@@H](CC(C)C)C(=O)N[C@H](CC(=O)O)C(=O)N[C@@H](Cc1ccccc1)C(=O)N[C@@H](CC(C)C)C(=O)N[C@@H](Cc1ccccc1)C(=O)N[C@@H](CC(C)C)C(=O)N[C@@H](CCCNC(=N)N)C(=O)N[C@@H](CCCCN)C(=O)N[C@@H](CCCCN)C(=O)O)[C@@H](C)CC)[C@@H](C)CC [CSP2-E1Ad10, A-M-R-I-S-R-I-I-L-d-F-L-F-L-R-K-K] (H-AMRISRIIL[dD]FLFLRKK-OH; N-terminus and C-terminus assumed)
[6]
  CSP2-mediated ComX induction: capable of inhibiting
[2]
  mouse mortality: significantly reduced mouse mortality
[9]; 50 min, C+Y medium
  induction of ssbB by CSP, moxifloxacin and clavulanate: inhibit

Source: patent publication US12528838B2, “Cyclic dominant negative competence stimulating peptide analogs and methods of treating Streptococcus pneumoniae infections” (priority 2019, dated 2026)
